Source: PubChem BioAssay AID540276 (National Center for Advancing Translational Sciences (NCATS), 2011)
Hit rate of the full screen: of about 300,000 compounds, about 5,400 (1.8%) were called active. Inconclusive results, whose numbers are uncertain, are shown with a selection of clear calls. Calls come from the whole dose curve; tested in HEK293 cells. Potencies of inconclusive entries are doubtful fits and often do not repeat.

assay: qHTS for inhibitors of binding or entry into cells for Marburg Virus; settings: Marburg virus pseudotyped entry inhibition, cell reporter; activity change, negative = inhibition: at 37.8 µM (top of the series) unless noted
% is set by controls: 0 for no effect and ±100 for the full control effect; potency is the fitted concentration of half-maximal effect.

| SMILES | Potency | activity change, negative = inhibition |
| --- | --- | --- |
| CCCCCn1c(CN2CCN(c3cccc(Cl)c3)CC2)nc2c1c(=O)n(C)c(=O)n2C | inconclusive: 0.103 µM [inhibitor, full curve, poor fit] | – |
| COc1cccc(/C=C2/NC(=O)NC2=O)c1OCC(=O)Nc1ccccc1 | inconclusive: 17.8 µM [inhibitor, single point] | – |
| COc1ccc(CCN(Cc2nc3ccccc3c(=O)[nH]2)C(=O)c2ccco2)cc1 | inconclusive: 6.31 µM [inhibitor, partial curve, poor fit] | – |
| Cc1ccc(S(=O)(=O)N2CCOCC2)cc1C(=O)N1CCN(Cc2ccccc2)CC1 | – | inactive: -14.2% |
| O=C(O)/C(=C/c1ccc(Cl)c([N+](=O)[O-])c1)c1ccc(S(=O)(=O)N2CCCCC2)s1 | – | inactive: 11.4% [at 46.1 µM] |
| CCOc1ccccc1N(C)S(=O)(=O)c1ccc2[nH]cc(C(=O)N(CCOC)CCOC)c(=O)c2c1 | inconclusive: 6.31 µM [inhibitor, single point] | – |
| COc1cc2c(cc1OC)C(c1ccc(C(F)(F)F)cc1)CC(=O)N2 (stereo unspecified) | inconclusive: 5.62 µM [inhibitor, single point] | – |
| O=C(O)c1ccc(COc2ccc(/C=N/NC(=O)c3cccs3)cc2)cc1 | – | inactive: 1.67% |
| O=C(c1ccccc1)c1ccc[nH]1 | – | inactive: -3.27% [at 46.1 µM] |
| C[C@H]1CCCC(=O)N[C@@H](c2ccccc2)[C@@H](C)CCCC(=O)N[C@@H]1c1ccccc1 | inconclusive: 0.299 µM [activator, partial curve, poor fit] | – |
| CCOC(=O)c1c(C)[nH]c(N=Nc2cccc(C)c2)c1C | inconclusive: 0.517 µM [activator, full curve] | – |
| CCc1ccc(CN2CCC(n3nccc3NC(=O)C3CCCC3)CC2)cc1 | – | inactive: -57.2% |
| CCN1CCN(S(=O)(=O)c2ccc(S(=O)(=O)N(CC)Cc3ccccc3)cc2)CC1 | – | inactive: -19.4% |
| O=C(COC(=O)c1cc(-c2ccco2)nc2ccccc12)NCc1ccc2c(c1)OCO2 | inactive | – |
| O=C(Nc1ccc(N2CCN(C(=O)c3ccco3)CC2)c(Cl)c1)c1cccs1 | inconclusive: 35.5 µM [inhibitor, single point] | – |
| C=CC1=C2C=C(C3CC3)N(C3CCCC3)C=C2C(=O)C(C)(OC(=O)c2ccco2)C1=O (stereo unspecified) | inactive | – |
| O=C(Nc1nccs1)c1ccc(-c2ccccc2[N+](=O)[O-])o1 | inconclusive: 3.55 µM [activator, partial curve, poor fit] | – |
| CCOC(=O)Cc1c(C)c2c(O)cc(O)cc2oc1=O | – | inactive: 14.5% |
| CCOC(=O)C1=C(CSc2nc3c(cc2C#N)CN(C)CC3)OC(N)=C(C#N)C1c1ccccc1 (stereo unspecified) | inconclusive: 22.4 µM [inhibitor, partial curve, poor fit] | – |
| CCOc1ccc(NC(=O)COc2ccc(C(=O)NCC3CCCO3)cc2OC)cc1 (stereo unspecified) | inconclusive: 1.26 µM [activator, single point] | – |
| O=C(Nc1ccccc1Cl)c1sccc1-c1ccccc1 | inconclusive: 11.2 µM [inhibitor, partial curve, poor fit] | – |
| c1cncc(C(c2nnnn2C2CCCCC2)N2CCCCC2)c1 (stereo unspecified) | – | inactive: -9.11% [at 46.1 µM] |
| OC1CCC(NC(=S)Nc2ccc(SC(F)F)cc2)CC1 (stereo unspecified) | inconclusive: 0.631 µM [activator, partial curve, poor fit] | – |

| SMILES | Potency | activity change, negative = inhibition |
| --- | --- | --- |
| Cc1cccc(-n2nc3c([n+]2[O-])CCc2nonc2-3)c1C | inconclusive: 3.55 µM [activator, partial curve, poor fit] | – |
| COc1ccc(C)cc1NC(=O)CSc1ccc(-c2sc(C)nc2C)nn1 | – | inactive: -26.1% [at 46.1 µM] |
| COc1ccc(N2CCN(C(=O)CNS(=O)(=O)c3ccc(C)c(C)c3)CC2)cc1 | inconclusive: 7.08 µM [inhibitor, partial curve, poor fit] | – |
| CS(=O)(=O)c1cc([N+](=O)[O-])c(Sc2nc3ccccc3[nH]2)c([N+](=O)[O-])c1 | active: 13 µM | – |
| CCN(CC1CCCO1)C(=O)CCc1nnc(CCc2ccccc2OC)o1 (stereo unspecified) | – | inactive: 24.4% |
| CCCCn1c(CN2CCN(C)CC2)nc2ccccc21 | inconclusive: 20.6 µM [inhibitor, single point] | – |
| C/C(=N\NC(=O)c1ccccc1F)c1cccc(NC(=O)c2ccc(C)cc2)c1 | – | inactive: -5.59% |
| Cc1cc(C)n(-c2nc(NCCN(C)C)c3c4c(sc3n2)CCCC4)n1 | inconclusive: 2.51 µM [inhibitor, full curve, poor fit] | – |
| CC(OC(=O)c1ccco1)C(=O)NC1CCCCC1 (stereo unspecified) | – | inactive: -2.18% |
| Cc1ccc(NC(=O)c2c(C)nn(-c3ccccc3)c2Cl)cc1 | – | inactive: 21.8% |
| c1ccc(CCSc2ncnc3nc[nH]c23)cc1 | inconclusive: 29.1 µM [inhibitor, single point] | – |
| CCCC(C)NC(=O)c1sc2nc3n(c(=O)c2c1C)CCC3 (stereo unspecified) | – | inactive: 7.62% |
| O=C(NCc1ccco1)c1cc2nc(C3CC3)cc(C(F)(F)F)n2n1 | – | inactive: 1.14% [at 46.1 µM] |
| Cc1ccc(S(=O)(=O)N2CCN(CC(=O)N/N=C\c3ccc(Cl)c([N+](=O)[O-])c3)CC2)cc1 | inconclusive: 35.5 µM [inhibitor, partial curve, poor fit] | – |
| CC[C@@H](c1ccccc1)n1c(=O)n2n(c1=O)[C@H]1[C@H](O)[C@@H]3O[C@H]3C(=NOCc3ccccc3)[C@H]1CC2 | inconclusive: 0.596 µM [inhibitor, single point] | – |
| Cc1ccc(NC(=S)N2CCN(Cc3ccccc3)CC2)cc1 | – | inactive: -25.6% [at 46.1 µM] |
| CCc1ccccc1NC(=O)CCc1c(C)nc2cc(-c3ccccc3)nn2c1C | – | inactive: 1.76% [at 46.1 µM] |
| CCN(CC(=O)Nc1cc(Cl)ccc1C)C(=O)c1oc2ccc(OC)cc2c1C | – | inactive: -28.3% |
| Cc1ccc(NC(=O)Cn2cccc2)c(Br)c1 | inconclusive: 2.06 µM [activator, single point] | – |
| CCOC(=O)c1sc(Nc2nc3c(F)cccc3s2)cc1C | inconclusive: 3.55 µM [activator, full curve] | – |
| O=c1nc2n(c3ccc([N+](=O)[O-])cc13)CCCCC2 | – | inactive: 12.1% [at 46.1 µM] |
| CCn1c(=N)n(CC(=O)c2cccc([N+](=O)[O-])c2)c2ccccc21 | inconclusive: 11.6 µM [activator, partial curve, poor fit] | – |
| C=CCOC(=O)NC(CC(=Nc1ccc(OC)cc1)C(=O)OC)c1ccccc1 (stereo unspecified) | inactive | – |

Molecules listed so far containing a COOH group, in the order listed:

| SMILES | Potency | activity change, negative = inhibition |
| --- | --- | --- |
| O=C(O)/C(=C/c1ccc(Cl)c([N+](=O)[O-])c1)c1ccc(S(=O)(=O)N2CCCCC2)s1 | – | inactive: 11.4% [at 46.1 µM] |
| O=C(O)c1ccc(COc2ccc(/C=N/NC(=O)c3cccs3)cc2)cc1 | – | inactive: 1.67% |
